# Measurements reported in PubChem BioAssay AID2685 (National Center for Advancing Translational Sciences (NCATS), 2010).
# The other results are listed elsewhere or left out. The main result of the screen is listed elsewhere. These columns were measured beside it and carry no call. Compounds called inactive in the main read-out are mostly missing here. Words in brackets tell the shape of the fitted curve; partial curves, single points and poor fits give uncertain potencies.
# Test: qHTS Assay for Lipid Storage Modulators in Drosophila S3 Cells;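 on cell number change: cells counted by Cell Tracker Red CMTPX staining in the red channel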
# Conditions: BODIPY lipid droplet fluorescence, 18-24 h; for cell number change: measured here: cell count max response, cells fed with added oleic acid
# In short: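 Drosophila S3 cells got compounds at several concentrations plus oleic acid (400 uM solution). Laser-scanning cytometry with 488 nm excitation read lipid droplets at 500-530 nm and cells at 575-640 nm. Percent activity was relative to 20 uM Triacsin C.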
# [1] = measured here: lipid fluorescence (Fed channel) AC50, cells fed with added oleic acid
# [2] = measured here: cell number channel AC50, cells fed with added oleic acid
Compound,cell number change [%],AC50 [1],AC50 [2]
O=C(CN1C(=O)NC2(CCCC2)C1=O)c1ccc(Cl)s1,-15,–,–
O=C(NC1CCCCC1)c1ccc(Br)o1,4.28,"0.517 µM [falling, full curve, poor fit]",–
CN(CC(=O)Nc1ccc(F)cc1)CC(=O)Nc1ccc(Cl)c(S(=O)(=O)N2CCOCC2)c1,13,"2.31 µM [rising, full curve]",–
O=C(Nc1cccnc1)c1cn(-c2ccccc2)nc1-c1cccs1,-0.194,"5.8 µM [rising, full curve]",–
O=S1(=O)C=C(N2CCOCC2)c2ccccc21,-15.8,–,"0.00461 µM [falling, full curve, poor fit]"
CCOC(=O)C1(c2ccccc2)NC(c2ccccc2C)C2C(=O)N(c3ccc4c(c3)OCO4)C(=O)C21 (configuration not stated),15.7,"13 µM [rising, partial curve, poor fit]",–
NS(=O)(=O)c1ccc(Nc2nc(-c3ccc(O)cc3)cs2)cc1,-7.34,–,–
COc1cc(C(=O)NC2(C(F)(F)F)NC(=O)N(CCCc3ccccc3)C2=O)cc(OC)c1OC (configuration not stated),17.7,"3.66 µM [rising, partial curve, poor fit]",–
Cc1c(Cl)cccc1NC(=O)CCN1C(=O)C2CC=CCC2C1=O (configuration not stated),4.99,–,"0.58 µM [rising, full curve, poor fit]"
CCOc1ccc(/C=N/n2c(C3CCCCC3)n[nH]c2=S)cc1,20.8,"0.58 µM [rising, single point]",–
OCCN1CCN(Cc2cc(Cl)c3cccnc3c2O)CC1,54,"0.0058 µM [falling, full curve, poor fit]","25.9 µM [rising, single point]"
Cc1nnc(C)n1/N=C/c1ccc(-c2ccccc2)cc1,155,"29.1 µM [rising, single point]","29.1 µM [rising, single point]"
CCOC(=O)/C(C#N)=C/c1c(N2CCN(c3ccccc3)CC2)nc2c(C)cccn2c1=O,31.7,–,"29.1 µM [rising, single point]"
FCCCOc1ccc(-c2nccc(-c3ccccn3)n2)cc1,9.97,"3.66 µM [rising, partial curve]",–
Cc1ccc(-c2cn(C[C@H]3CC[C@@H]([C@@H]4CC[C@H](Cn5cc(-c6ccc(C)cc6)nn5)O4)O3)nn2)cc1,-11.7,"16.4 µM [falling, single point]",–
Cn1c(Cn2nnc3ccccc32)nnc1SCC(=O)N1CCc2ccccc21,-8.95,"5.8 µM [falling, single point]",–
Cc1ccc(-c2cc(C(F)F)nc(NCC3CCCO3)n2)cc1 (configuration not stated),-24.1,"29.1 µM [falling, single point]",–
CC(C)CNC(=O)/C=C/C(=O)O,1.44,"0.13 µM [falling, full curve, poor fit]",–
CCCCCCSc1ccc(-c2nc3ccccn3c2NCCCC)cc1,-40.1,–,"14.6 µM [falling, partial curve]"
CC1(C)CC(=O)C2=C(C1)N(c1ccccc1)C(=O)C2(O)C(F)(F)F (configuration not stated),-51.6,"0.00411 µM [falling, full curve, poor fit]","20.6 µM [falling, single point]"

Compound,cell number change [%],AC50 [1],AC50 [2]
CCOc1ccc(Oc2ccc(Cl)cc2N)cc1,8.55,–,–
COc1ccc(NC(=O)CN(C)C(=O)c2cccc(S(=O)(=O)Nc3ccc(F)cc3)c2)cc1,-0.55,"0.103 µM [rising, full curve, poor fit]",–
COc1ccc(NCc2cc(=O)[nH]c3ccccc23)cc1,–,"5.8 µM [rising, single point]","6.51 µM [rising, partial curve, poor fit]"
O=C(Nc1ccc(N2CCN(C(=O)c3ccc(Cl)cc3)CC2)cc1)c1cccnc1,–,"3.26 µM [rising, partial curve]","6.51 µM [rising, single point]"
COc1ccc(C(=O)COC(=O)C(CCSC)NC(=O)COc2ccccc2)c(OC)c1 (configuration not stated),-4.55,"16.4 µM [falling, single point]",–
Cc1ccc2cc(C#N)c(N3CCCN(C(=O)c4cnccn4)CC3)nc2c1,21.8,"6.51 µM [falling, partial curve]","0.13 µM [rising, full curve, poor fit]"
COC(=O)c1cccc(S(=O)(=O)N2CCCCC2)c1,7.11,–,–
CCN(CC(=O)NCc1ccc(Cl)cc1)C(=O)c1ccc(C#N)cc1,-9.72,"6.51 µM [falling, single point]",–
CC(=O)Nc1ccc(S(=O)(=O)N2CCC3(CC2)OCCO3)cc1,-3.78,"29.1 µM [rising, single point]",–
N#CCCn1c(SCC(=O)c2c[nH]c3ccccc23)nc2ccccc21,–,"0.461 µM [rising, full curve]","1.16 µM [rising, full curve]"
COc1ccc(-c2nc3c(c(=O)c4ccccc4n3C)c(=O)n2Cc2ccccc2)cc1,12.7,"29.1 µM [rising, single point]",–
CCn1cc(C(=O)NC2CCCCC2)c(=O)c2ccc(C)nc21,53.4,–,"18.4 µM [rising, single point]"
O=C(NCc1ccccc1)c1ccc(CS(=O)(=O)c2ccccc2)o1,-9.99,"0.0058 µM [rising, full curve, poor fit]",–
C/C(CC(C)C)=N\Nc1ccc(S(N)(=O)=O)cc1[N+](=O)[O-],-42.5,"32.6 µM [falling, partial curve, poor fit]","32.6 µM [falling, partial curve, poor fit]"
CCOC(=O)C1CCN(c2c(NCCCN3CCN(Cc4ccccc4)CC3)c(=O)c2=O)CC1,16,–,–
Cc1cccn2c(=O)c(C(=O)NC3CC(C)CC(C)(C)C3)c(O)nc12 (configuration not stated),12.8,"29.1 µM [falling, single point]",–
O=C(Cc1ccc(Br)cc1)Nc1ccc(S(=O)(=O)NCC2CCCO2)cc1 (configuration not stated),-20.9,"0.291 µM [falling, partial curve, poor fit]",–
Cc1ccc(-n2nnnc2SCc2nnc(-c3ccccc3Br)o2)cc1,-15.5,–,–
COc1ccc(C)cc1S(=O)(=O)N1c2ccccc2CC1C (configuration not stated),–,"2.06 µM [rising, partial curve, poor fit]","0.326 µM [rising, partial curve, poor fit]"
O=C(Nc1ccon1)Nc1cc(Cl)ccc1Cl,1.16,"6.31 µM [rising, single point]",–

Compound,cell number change [%],AC50 [1],AC50 [2]
Fc1ccccc1NC(=S)N1CCCCC1,16.9,–,–
O=C(COc1ccccc1Cl)N1CCN(C(=O)c2ccco2)CC1,9.19,"29.1 µM [rising, single point]",–
O=C(NCc1ccccc1)C(c1ccccc1)N(C(=O)c1csnn1)c1ccccc1 (configuration not stated),-22.9,"29.1 µM [rising, single point]",–
COc1ccccc1-c1nnc(SC(C)C(=O)Nc2ccc(C(N)=O)cc2)o1 (configuration not stated),–,"29.1 µM [rising, single point]",–
CCc1ccc(CN/C=C/C(=O)c2ccc(Br)cc2)cc1,-38.5,"2.06 µM [falling, partial curve]","29.1 µM [falling, single point]"
CCCCc1nc2cc(C(=O)NCCc3cnn(C)c3)ccc2o1,-8.42,"6.51 µM [falling, single point]",–
CCOc1cc(/C=N/Nc2ccccc2Cl)ccc1OCC(=O)O,–,"18.4 µM [rising, single point]",–
CCn1cc(/C=C(\NC(=O)c2cc(OC)c(OC)c(OC)c2)C(=O)N2CCN(C)CC2)c2ccccc21,–,"0.731 µM [rising, full curve]",–
CC(NC(=O)c1ccccc1F)C1CC1 (configuration not stated),8.75,"1.03 µM [rising, single point]",–
CC(=O)Nc1ccc(OC(=O)CC2SC(=O)NC2=O)cc1 (configuration not stated),–,"0.82 µM [rising, full curve, poor fit]",–
C=CCN=C(NC#N)SC,-31.7,"13 µM [falling, partial curve, poor fit]","7.31 µM [falling, partial curve, poor fit]"
Cc1ccc(CNC(=O)c2ccc(Cn3cc(-c4ccc(C)cc4)nc3-c3ccncc3)cc2)cc1,8.08,–,–
Cc1cc(C)nc(Sc2ccc(/C=C(\C#N)C(N)=O)o2)n1,9.66,"1.84 µM [rising, partial curve, poor fit]",–
COCCn1cnc2c1c(=O)[nH]c(=O)n2Cc1ccccc1,–,–,"6.51 µM [rising, single point]"
COc1cccc(NC(=O)CCC2CCN(C(=O)c3scnc3C)CC2)c1,24.3,–,–
CCSc1nnc(NC(=O)c2cc(C)nc3ccccc23)s1,13.7,"0.82 µM [rising, full curve, poor fit]",–
CC12CCC(c3nnc(SCC(=O)Nc4cccc5ccccc45)nc31)C2(C)C (configuration not stated),-30.4,–,"8.2 µM [falling, partial curve]"
CCOCCCNC(=O)c1ccc2c(c1)N(Cc1ccccc1)C(=O)CS2=O (configuration not stated),–,"8.2 µM [rising, partial curve]",–
COc1ccc(NC(=O)c2ccc3c(c2)CCN3S(=O)(=O)c2ccccc2)cc1,-7.03,"14.6 µM [rising, partial curve]",–
NC(=O)CC(NC(=O)Cc1ccc(Br)cc1)c1ccc(NCc2ccc(F)c(F)c2)c([N+](=O)[O-])c1 (configuration not stated),14.8,"32.6 µM [falling, single point]",–

# Full records, quoted from the list. Order of values: cell number change [%] | AC50 [1] | AC50 [2]
# C=CCN=C(NC#N)SC reads -31.7 | 13 µM [falling, partial curve, poor fit] | 7.31 µM [falling, partial curve, poor fit]
# CCOc1ccc(/C=N/n2c(C3CCCCC3)n[nH]c2=S)cc1 reads 20.8 | 0.58 µM [rising, single point] | –
# NC(=O)CC(NC(=O)Cc1ccc(Br)cc1)c1ccc(NCc2ccc(F)c(F)c2)c([N+](=O)[O-])c1 (configuration not stated) reads 14.8 | 32.6 µM [falling, single point] | –
# CCOc1cc(/C=N/Nc2ccccc2Cl)ccc1OCC(=O)O reads – | 18.4 µM [rising, single point] | –
